No constants are given. Whether binding was seen depends on the method and setting. In cells and extracts the contact can be indirect. Here binding means that the protein was enriched with, or labelled near, the bait; the list need not be complete. Sequences can lack the tags named with a protein.
T1: Flag-tagged EWSR1(2-325)-ATF1(66-271) fusion (UniProt Q01844)
T1 sequence: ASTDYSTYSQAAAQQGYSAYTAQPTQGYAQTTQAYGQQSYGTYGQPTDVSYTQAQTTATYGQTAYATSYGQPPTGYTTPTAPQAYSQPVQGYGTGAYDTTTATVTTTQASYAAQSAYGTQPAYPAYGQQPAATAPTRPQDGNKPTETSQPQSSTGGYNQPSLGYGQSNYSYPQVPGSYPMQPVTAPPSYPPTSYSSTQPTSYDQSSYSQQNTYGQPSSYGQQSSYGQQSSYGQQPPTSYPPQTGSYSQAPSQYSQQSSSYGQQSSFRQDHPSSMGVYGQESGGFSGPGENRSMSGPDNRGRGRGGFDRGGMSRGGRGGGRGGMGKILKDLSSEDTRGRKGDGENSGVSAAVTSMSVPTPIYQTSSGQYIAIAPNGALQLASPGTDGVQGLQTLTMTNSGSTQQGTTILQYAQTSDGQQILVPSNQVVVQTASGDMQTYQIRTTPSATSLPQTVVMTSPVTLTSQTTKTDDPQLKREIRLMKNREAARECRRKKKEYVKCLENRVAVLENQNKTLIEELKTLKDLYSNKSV

Chains of the proteins cited; added tags and fusions are not shown.
UniProt P68871: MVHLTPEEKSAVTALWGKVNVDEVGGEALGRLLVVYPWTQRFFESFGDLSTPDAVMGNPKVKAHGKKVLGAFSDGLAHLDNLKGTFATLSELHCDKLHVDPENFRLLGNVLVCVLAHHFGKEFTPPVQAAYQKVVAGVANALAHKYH
UniProt P52732: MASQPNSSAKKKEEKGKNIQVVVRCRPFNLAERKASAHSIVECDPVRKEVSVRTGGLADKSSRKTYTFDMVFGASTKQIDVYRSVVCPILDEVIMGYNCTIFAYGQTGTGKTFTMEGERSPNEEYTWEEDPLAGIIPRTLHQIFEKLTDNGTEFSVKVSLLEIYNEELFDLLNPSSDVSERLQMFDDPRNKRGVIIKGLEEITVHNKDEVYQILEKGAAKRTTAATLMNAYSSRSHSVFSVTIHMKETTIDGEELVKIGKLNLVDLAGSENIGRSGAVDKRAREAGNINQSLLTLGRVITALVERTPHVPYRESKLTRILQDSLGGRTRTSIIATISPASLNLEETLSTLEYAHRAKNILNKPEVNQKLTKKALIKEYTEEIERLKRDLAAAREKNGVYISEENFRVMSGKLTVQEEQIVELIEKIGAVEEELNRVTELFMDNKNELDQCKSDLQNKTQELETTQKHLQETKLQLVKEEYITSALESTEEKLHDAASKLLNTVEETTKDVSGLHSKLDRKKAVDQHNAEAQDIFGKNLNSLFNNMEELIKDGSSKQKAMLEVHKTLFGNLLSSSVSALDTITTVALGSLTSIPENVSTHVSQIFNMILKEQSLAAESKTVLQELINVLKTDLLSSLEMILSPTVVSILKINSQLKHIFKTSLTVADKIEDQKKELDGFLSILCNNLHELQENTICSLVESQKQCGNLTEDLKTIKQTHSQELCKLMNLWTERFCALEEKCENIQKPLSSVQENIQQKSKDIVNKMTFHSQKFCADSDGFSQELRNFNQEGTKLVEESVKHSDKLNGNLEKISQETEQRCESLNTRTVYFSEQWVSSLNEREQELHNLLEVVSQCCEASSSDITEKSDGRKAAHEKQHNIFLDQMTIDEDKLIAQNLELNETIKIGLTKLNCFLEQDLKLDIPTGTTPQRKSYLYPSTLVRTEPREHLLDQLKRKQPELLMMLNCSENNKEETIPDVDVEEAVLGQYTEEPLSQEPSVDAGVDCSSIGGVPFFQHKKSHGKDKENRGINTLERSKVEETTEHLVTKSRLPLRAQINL
UniProt O14744: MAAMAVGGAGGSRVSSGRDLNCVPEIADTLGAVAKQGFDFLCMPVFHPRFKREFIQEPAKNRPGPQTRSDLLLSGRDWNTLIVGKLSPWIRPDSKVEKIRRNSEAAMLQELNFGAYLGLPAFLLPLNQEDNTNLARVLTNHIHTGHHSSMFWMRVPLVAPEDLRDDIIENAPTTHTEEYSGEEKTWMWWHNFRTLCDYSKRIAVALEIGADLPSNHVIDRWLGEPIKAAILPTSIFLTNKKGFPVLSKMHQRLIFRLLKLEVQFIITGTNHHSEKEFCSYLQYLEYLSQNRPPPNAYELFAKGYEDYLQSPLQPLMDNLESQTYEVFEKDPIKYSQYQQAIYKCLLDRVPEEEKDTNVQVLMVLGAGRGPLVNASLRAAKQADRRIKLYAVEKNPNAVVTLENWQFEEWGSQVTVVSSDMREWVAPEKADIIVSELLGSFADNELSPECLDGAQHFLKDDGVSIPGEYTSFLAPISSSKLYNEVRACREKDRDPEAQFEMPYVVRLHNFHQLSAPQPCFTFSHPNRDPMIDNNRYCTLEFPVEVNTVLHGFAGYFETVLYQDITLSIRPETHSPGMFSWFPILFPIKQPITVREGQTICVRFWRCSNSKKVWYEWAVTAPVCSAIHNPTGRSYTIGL

B1: PPM1B (protein, UniProt O75688 1-479)
chain: MGAFLDKPKTEKHNAHGAGNGLRYGLSSMQGWRVEMEDAHTAVVGIPHGLEDWSFFAVYDGHAGSRVANYCSTHLLEHITTNEDFRAAGKSGSALELSVENVKNGIRTGFLKIDEYMRNFSDLRNGMDRSGSTAVGVMISPKHIYFINCGDSRAVLYRNGQVCFSTQDHKPCNPREKERIQNAGGSVMIQRVNGSLAVSRALGDYDYKCVDGKGPTEQLVSPEPEVYEILRAEEDEFIILACDGIWDVMSNEELCEYVKSRLEVSDDLENVCNWVVDTCLHKGSRDNMSIVLVCFSNAPKVSDEAVKKDSELDKHLESRVEEIMEKSGEEGMPDLAHVMRILSAENIPNLPPGGGLAGKRNVIEAVYSRLNPHRESDGASDEAEESGSQGKLVEALRQMRINHRGNYRQLLEEMLTSYRLAKVEGEESPAEPAATATSSNSDAGNPVTMQESHTESESGLAELDSSNEDAGTKMSGEKI
B2: PTGES3 (protein, UniProt Q15185 1-160)
chain: MQPASAKWYDRRDYVFIEFCVEDSKDVNVNFEKSKLTFSCLGGSDNFKHLNEIDLFHCIDPNDSKHKRTDRSILCCLRKGESGQSWPRLTKERAKLNWLSVDFNNWKDWEDDSDEDMSNFDRFSEMMNNMGGDEDVDLPEVDGADDDSQDSDDEKMPDLE

What follows are molecules tested against T1, Flag-tagged EWSR1(2-325)-ATF1(66-271) fusion (assay: affinity purification with mass spectrometry).

binding, binds:
HBB (from UniProt P68871 1-147), KIF11 (from UniProt P52732 1-1056), protein arginine methyltransferase 5 (PRMT5) (from UniProt O14744 1-637) (enzyme), B1, B2
